Data: PMC8460662
No constants are given. Whether binding was seen depends on the method and setting. Some binding calls cover weakened binding; strength is not graded here. Values belong to the binder of their own block, whether it stands above or below them.

Assays:
[1] = target: PTEN-induced kinase 1, N-terminal mCherry (human) (UniProt Q9BXM7); assay: two-colour coincidence detection (TCCD), single-molecule fluorescence; N-mCherry PINK1 co-expressed in LTE with N-GFP LB proteins; 300 s traces, triplicate; Association Quotient Q
[2] = target: T1, PTEN-induced kinase 1, N-terminal mCherry (human), Q9BXM7; assay: single-molecule fluorescence of the cell-free expressed protein; PINK1 expressed in the LTE cell-free system; aggregates observed; no further detail; settings: remark: other sources report otherwise
T1 chain: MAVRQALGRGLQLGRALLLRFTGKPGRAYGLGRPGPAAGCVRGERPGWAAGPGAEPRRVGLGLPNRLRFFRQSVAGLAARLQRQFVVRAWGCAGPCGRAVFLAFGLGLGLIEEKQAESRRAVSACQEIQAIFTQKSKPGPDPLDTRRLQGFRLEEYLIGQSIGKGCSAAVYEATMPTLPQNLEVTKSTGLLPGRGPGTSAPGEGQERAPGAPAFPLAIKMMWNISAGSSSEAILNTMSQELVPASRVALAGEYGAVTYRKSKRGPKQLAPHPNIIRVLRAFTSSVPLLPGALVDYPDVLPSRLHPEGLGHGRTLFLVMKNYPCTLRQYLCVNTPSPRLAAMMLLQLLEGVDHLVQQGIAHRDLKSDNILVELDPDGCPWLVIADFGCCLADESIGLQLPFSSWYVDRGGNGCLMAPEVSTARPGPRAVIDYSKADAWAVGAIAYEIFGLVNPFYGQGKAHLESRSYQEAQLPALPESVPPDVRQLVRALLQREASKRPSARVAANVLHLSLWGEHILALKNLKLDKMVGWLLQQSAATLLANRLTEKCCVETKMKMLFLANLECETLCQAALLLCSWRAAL

B1: TGM2 (enzyme, UniProt P21980 1-687)
chain: MAEELVLERCDLELETNGRDHHTADLCREKLVVRRGQPFWLTLHFEGRNYEASVDSLTFSVVTGPAPSQEAGTKARFPLRDAVEEGDWTATVVDQQDCTLSLQLTTPANAPIGLYRLSLEASTGYQGSSFVLGHFILLFNAWCPADAVYLDSEEERQEYVLTQQGFIYQGSAKFIKNIPWNFGQFEDGILDICLILLDVNPKFLKNAGRDCSRRSSPVYVGRVVSGMVNCNDDQGVLLGRWDNNYGDGVSPMSWIGSVDILRRWKNHGCQRVKYGQCWVFAAVACTVLRCLGIPTRVVTNYNSAHDQNSNLLIEYFRNEFGEIQGDKSEMIWNFHCWVESWMTRPDLQPGYEGWQALDPTPQEKSEGTYCCGPVPVRAIKEGDLSTKYDAPFVFAEVNADVVDWIQQDDGSVHKSINRSLIVGLKISTKSVGRDEREDITHTYKYPEGSSEEREAFTRANHLNKLAEKEETGMAMRIRVGQSMNMGSDFDVFAHITNNTAEEYVCRLLLCARTVSYNGILGPECGTKYLLNLNLEPFSEKSVPLCILYEKYRDCLTESNLIKVRALLVEPVINSYLLAERDLYLENPEIKIRILGEPKQKRKLVAEVSLQNPLPVALEGCTFTVEGAGLTEEQKTVEIPDPVEAGEEVKVRMDLLPLHMGLHKLVVNFESDKLKAVKGFRNVIIGPA
binding [1]: binds

B2: αβ-crystallin (protein, UniProt P02511 1-175)
chain: MDIAIHHPWIRRPFFPFHSPSRLFDQFFGEHLLESDLFPTSTSLSPFYLRPPSFLRAPSWFDTGLSEMRLEKDRFSVNLDVKHFSPEELKVKVLGDVIEVHGKHEERQDEHGFISREFHRKYRIPADVDPLTITSSLSSDGVLTVNGPRKQVSGPERTIPITREEKPAVTAAPKK
binding [1]: no binding

binding [2]: binds
B3: PTEN-induced kinase 1, N-terminal mCherry, Q9BXM7 1-581 (protein)
chain: T1 chain
